Assay results from PubChem BioAssay AID256 (DTP/NCI, 2004).
The list shows only some results of the screen, not a fair sample: it gathers tests that were run many times, whatever their T/C, doses with no T/C, and many T/C values between a quarter and a half above the control. Further doses and runs are listed elsewhere. T/C is the treated group as % of the vehicle group. Some entries give survivors of the animals treated and no T/C: the source holds a T/C of zero for them, seemingly a mark for toxic or unscored doses. Some survivor counts are full or nearly so, which does not show that the dose was tolerated: the source hardly ever lists a survival T/C far under the control, and the zero likely stands for such cases as well. Survivors were counted at the toxicity check, usually on the fifth day, unless a day is given; later deaths do not show. Schedule codes are those of the source, taken here to give the interval after Q, in days (D) or hours (H), and the number of doses after X. For survival time, this PubChem deposit counts one and a half times the control or more as active, and values a quarter to a half above the control carry no call in these data; other NCI protocols may use other cut-offs. Some entries hold several experiments; their values stand side by side, smallest first. Some T/C values are followed by the survivors on the day toxicity was checked, most often the fifth; where none is given, no animal had died by that day.

System: CD2F1 mice, L1210 leukemia ip, survival T/C
Test: NCI In Vivo Anticancer Drug Screen. Data for tumor model L1210 Leukemia (intraperitoneal) in CD2F1 (CDF1) mice
Conditions: T/C endpoint: mean survival time, higher T/C = longer survival
Summary of the method: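 Tumor-bearing mice (transplanted tumor) were split into treated and vehicle control groups, and the measured endpoint of each treated group was divided by that of its vehicle controls.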

[1] = dose: 400.0 mg/kg/injection, schedule: Q01DX001 (ip), vehicle: saline with Tween-80
[2] = dose: 100.0 mg/kg/injection, schedule: Q04DX003 (ip), vehicle: saline with Tween-80
[3] = dose: 200.0 mg/kg/injection, schedule: Q04DX003 (ip), vehicle: saline with Tween-80
[4] = dose: 400.0 mg/kg/injection, schedule: Q04DX003 (ip), vehicle: saline with Tween-80
[5] = dose: 100.0 mg/kg/injection, schedule: Q04DX003 (ip), vehicle: saline
[6] = dose: 200.0 mg/kg/injection, schedule: Q04DX003 (ip), vehicle: saline
[7] = dose: 400.0 mg/kg/injection, schedule: Q04DX003 (ip), vehicle: saline

For `CCCCCCCC1SC(=S)NC1=O` (configuration not stated), the survivor count (dose: 200.0 mg/kg/injection, schedule: Q01DX009 (ip), vehicle: other) was 2 of 5.

For `[Cl][Gd]([Cl])[Cl]`, the survivor count (dose: 400.0 mg/kg/injection, schedule: Q01DX009 (ip), vehicle: saline with Tween-80) was 4 of 6.

`O=C(O)/C=C/c1ccc([N+](=O)[O-])o1` was tested, and the survivor count [1] was 0 of 3.

In the case of `Oc1ccc(Nc2c3ccccc3nc3c2ccc2ccccc23)cc1CN(CCCl)CCCl`, the T/C (dose: 1.56 mg/kg/injection, schedule: Q01DX009 (ip), vehicle: saline) is reported as 136 % of control.

`CCOC(=O)c1ccc(NC(=O)Nc2nncs2)cc1` was tested, and the survivor count (dose: 200.0 mg/kg/injection, schedule: Q01DX009 (ip), vehicle: distilled water + Tween-80) was 4 of 6.

With `OCC1OC(n2cnc3c(NCCc4ccccc4)ncnc32)C(O)C1O` (configuration not stated) the survivor count (dose: 100.0 mg/kg/injection, schedule: Q01DX005 (ip), vehicle: other) was 3 of 6 and the survivor count (dose: 200.0 mg/kg/injection, schedule: Q01DX005 (ip), vehicle: other) was 1 of 6.

With `O=C(C[n+]1ccccc1/C=N/O)c1ccccc1` the survivor count [2] was 5 of 6 and the survivor count [3] was 0 of 6.

For `CCCCSc1cc(C)nc2ccccc12`, the survivor count (dose: 200.0 mg/kg/injection, schedule: Q04DX002 (ip), vehicle: saline with Tween-80) was 3 of 3 and the survivor count (dose: 400.0 mg/kg/injection, schedule: Q04DX002 (ip), vehicle: saline with Tween-80) was 2 of 3.

`CCOC(=O)/C(C#N)=C/NC(N)=O` was tested, and the survivor count (dose: 200.0 mg/kg/injection, schedule: Q01DX001 (ip), vehicle: Klucel (hydroxypropylcellulose) (HPC)) was 3 of 3.

In the case of `CC1=[S+]c2ccccc2C2Nc3ccccc3C12` (configuration not stated), the survivor count (dose: 400.0 mg/kg/injection, schedule: Q04DX003 (ip), vehicle: acetone) is reported as 3 of 6.

With `C[NH-].C[NH-].[Br][Pt][Br].[CH3-].[CH3-]` the survivor count (dose: 25.0 mg/kg/injection, schedule: Q04DX003 (ip), vehicle: saline with Tween-80) was 1 of 3, the survivor count (dose: 50.0 mg/kg/injection, schedule: Q04DX003 (ip), vehicle: saline with Tween-80) was 0 of 3 and the survivor count [2] was 0 of 3. For the same molecule, the survivor count [3] was 0 of 3 and the survivor count [4] was 0 of 3.

In the case of `COC(=O)/C=C/C(=O)NC(N)=O`, the survivor count [5] is reported as 3 of 6, the survivor count [6] is reported as 0 of 6 and the survivor count [7] is reported as 0 of 6.

`CC(=O)N(C(C)=O)c1ncc2ccccc2c1-c1ccc(N)cc1` was tested, and the survivor count [3] was 0 of 4 and the survivor count [4] was 0 of 4.

With `CC(=O)OCC1OC(OC(C)=O)C(NC(=S)N(C)N=O)C(OC(C)=O)C1OC(C)=O` (configuration not stated) the T/C (dose: 200.0 mg/kg/injection, schedule: Q04DX002 (ip), vehicle: distilled water + Tween-80) was 125 and 134 % of control, the T/C (dose: 400.0 mg/kg/injection, schedule: Q04DX002 (ip), vehicle: distilled water + Tween-80) was 131 and 132 % of control and the T/C (dose: 800.0 mg/kg/injection, schedule: Q04DX002 (ip), vehicle: distilled water + Tween-80) was 132 % of control [4 of 6 alive].

With `CSc1nc(=O)[nH]nc1Sc1ccccc1` the survivor count (dose: 300.0 mg/kg/injection, schedule: Q01DX001 (ip), vehicle: saline) was 0 of 6.

With `NCCS[As](=O)(O)SCCN` the survivor count [5] was 2 of 6, the survivor count [6] was 0 of 6 and the survivor count [7] was 0 of 6.

In the case of `COc1ccc2cc3[n+](cc2c1OC)CCc1cc2c(cc1-3)OCO2`, the survivor count (dose: 20.0 mg/kg/injection, schedule: Q01DX009 (ip), vehicle: saline with Tween-80) is reported as 1 of 6, the survivor count [2] is reported as 0 of 6 and the survivor count [3] is reported as 0 of 6. The survivor count [4] was 0 of 6.

With `Oc1c(Cl)c(Cl)c(O)c(Cl)c1Cl` the survivor count (dose: 100.0 mg/kg/injection, schedule: Q01DX001 (ip), vehicle: saline with Tween-80) was 0 of 3, the survivor count (dose: 200.0 mg/kg/injection, schedule: Q01DX001 (ip), vehicle: saline with Tween-80) was 0 of 3 and the survivor count [1] was 0 of 3.
